Melanoma cell counts after drug treatment

Source: doi:10.1371/journal.pone.0140310, primary screening data, rounded.

Drug key:
PF-562271 (0.08 µM): CN(c1ncccc1CNc1nc(Nc2ccc3c(c2)CC(=O)N3)ncc1C(F)(F)F)S(C)(=O)=O
MK-2206 (0.4 µM): NC1(c2ccc(-c3nc4ccn5c(=O)[nH]nc5c4cc3-c3ccccc3)cc2)CCC1
L-779450 (0.2 µM): Oc1cc(-c2nc(-c3ccccc3)[nH]c2-c2ccncc2)ccc1Cl
indole-3-carbinol (0.8 µM): OCc1c[nH]c2ccccc12
PD173074 (0.1 µM): CCN(CC)CCCCNc1ncc2cc(-c3cc(OC)cc(OC)c3)c(NC(=O)NC(C)(C)C)nc2n1
TCS401 (1.67 µM): O=C(O)C(=O)Nc1sc2c(c1C(=O)O)CCNC2
XAV939 (2 µM): Oc1nc(-c2ccc(C(F)(F)F)cc2)nc2c1CSCC2
tozasertib (0.006 µM): Cc1cc(Nc2cc(N3CCN(C)CC3)nc(Sc3ccc(NC(=O)C4CC4)cc3)n2)n[nH]1
crizotinib (0.2 µM): C[C@@H](Oc1cc(-c2cnn(C3CCNCC3)c2)cnc1N)c1c(Cl)ccc(F)c1Cl
GW9662 (2 µM): O=C(Nc1ccccc1)c1cc([N+](=O)[O-])ccc1Cl
FH535 (1 µM): Cc1cc([N+](=O)[O-])ccc1NS(=O)(=O)c1cc(Cl)ccc1Cl
BI-78D3 (0.2 µM): O=c1[nH]nc(Sc2ncc([N+](=O)[O-])s2)n1-c1ccc2c(c1)OCCO2

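Human melanoma cell lines in 1,536-well plates were treated with a pair of drugs for 72 h, then fixed, stained and imaged. Values are the number of DAPI-stained nuclei as a percentage of the DMSO control: 100 is no effect, lower means fewer cells. Concentrations were fixed for each drug; these are the lower of two levels, a fifth of the higher. No replicate spread is given; individual values may be noisy.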
Only some of the drugs and lines screened are listed, without regard to their results.
A dash means that no value is listed here.

Pair | C32 | A2058 | A101D | 501mel | A375
L-779450 and MK-2206 | 96.0 | 95.0 | 94.6 | 90.9 | -
TCS401 and XAV939 | 89.4 | 84.2 | 97.1 | 107 | 89.8
PD173074 and crizotinib | 92.2 | 105 | 111 | 92.0 | -
PD173074 and TCS401 | 107 | 115 | 117 | 88.0 | 96.0
L-779450 and indole-3-carbinol | 93.8 | 111 | 101 | 84.4 | -
GW9662 and PF-562271 | 87.2 | 102 | 112 | 105 | -
MK-2206 and PD173074 | 79.0 | 100 | 90.6 | 89.7 | -
FH535 and TCS401 | 104 | 96.8 | 92.2 | 86.5 | 93.5
tozasertib and TCS401 | 93.4 | 100 | 99.2 | 111 | -
tozasertib and PD173074 | 76.9 | 102 | 102 | 86.4 | -
PF-562271 and PD173074 | 91.4 | 95.6 | 86.1 | 107 | -
L-779450 and TCS401 | 88.0 | 111 | 86.1 | 54.3 | 77.8
crizotinib and L-779450 | 72.5 | 88.6 | 103 | 74.6 | -
FH535 and crizotinib | 99.0 | 102 | 81.7 | 86.2 | -
L-779450 and BI-78D3 | 89.0 | 116 | 92.9 | 77.5 | -
XAV939 and tozasertib | 77.2 | 77.3 | 82.6 | 100 | -
PF-562271 and TCS401 | 95.8 | 89.8 | 92.9 | 97.5 | -
L-779450 and FH535 | 79.9 | 97.1 | 94.1 | 58.0 | 68.9
XAV939 and MK-2206 | 107 | 103 | 97.0 | 115 | -
FH535 and XAV939 | 86.4 | 90.4 | 77.7 | 104 | 111
XAV939 and L-779450 | 76.3 | 89.5 | 76.1 | 84.1 | 68.8
GW9662 and indole-3-carbinol | 94.1 | 97.9 | 85.1 | 66.8 | -
MK-2206 and GW9662 | 102 | 98.9 | 75.3 | 93.0 | -
crizotinib and TCS401 | 112 | 90.1 | 90.7 | 84.9 | -
PD173074 and indole-3-carbinol | 104 | 85.8 | 88.6 | 105 | -
tozasertib and GW9662 | 87.7 | 104 | 104 | 82.2 | -
BI-78D3 and GW9662 | 108 | 99.6 | 80.2 | 83.6 | -
indole-3-carbinol and XAV939 | 95.3 | 87.5 | 90.1 | 112 | -
FH535 and BI-78D3 | 79.8 | 103 | 90.8 | - | -
PF-562271 and FH535 | 72.7 | 84.8 | 72.1 | 64.3 | -
FH535 and MK-2206 | 99.4 | 103 | 76.5 | 98.6 | -
BI-78D3 and TCS401 | 91.8 | 95.2 | 96.5 | 84.2 | -
GW9662 and crizotinib | 114 | 99.9 | 110 | - | -
TCS401 and indole-3-carbinol | 88.9 | 107 | 98.2 | 89.4 | -

Repeated from the top, 3 entries:

Pair,C32,A2058,A101D,501mel,A375
L-779450 and MK-2206,96.0,95.0,94.6,90.9,-
TCS401 and XAV939,89.4,84.2,97.1,107,89.8
PD173074 and crizotinib,92.2,105,111,92.0,-